Data published in publication PMC3790702.
No constants are given. Whether binding was seen depends on the method and setting. Binding seen in cells or lysates may run through a third protein. Some binding calls cover weakened binding; strength is not graded here.

Protein sequences, listed by entry. Tags and fused reporters are not part of them. Residues count along the entry.
UniProt Q02248: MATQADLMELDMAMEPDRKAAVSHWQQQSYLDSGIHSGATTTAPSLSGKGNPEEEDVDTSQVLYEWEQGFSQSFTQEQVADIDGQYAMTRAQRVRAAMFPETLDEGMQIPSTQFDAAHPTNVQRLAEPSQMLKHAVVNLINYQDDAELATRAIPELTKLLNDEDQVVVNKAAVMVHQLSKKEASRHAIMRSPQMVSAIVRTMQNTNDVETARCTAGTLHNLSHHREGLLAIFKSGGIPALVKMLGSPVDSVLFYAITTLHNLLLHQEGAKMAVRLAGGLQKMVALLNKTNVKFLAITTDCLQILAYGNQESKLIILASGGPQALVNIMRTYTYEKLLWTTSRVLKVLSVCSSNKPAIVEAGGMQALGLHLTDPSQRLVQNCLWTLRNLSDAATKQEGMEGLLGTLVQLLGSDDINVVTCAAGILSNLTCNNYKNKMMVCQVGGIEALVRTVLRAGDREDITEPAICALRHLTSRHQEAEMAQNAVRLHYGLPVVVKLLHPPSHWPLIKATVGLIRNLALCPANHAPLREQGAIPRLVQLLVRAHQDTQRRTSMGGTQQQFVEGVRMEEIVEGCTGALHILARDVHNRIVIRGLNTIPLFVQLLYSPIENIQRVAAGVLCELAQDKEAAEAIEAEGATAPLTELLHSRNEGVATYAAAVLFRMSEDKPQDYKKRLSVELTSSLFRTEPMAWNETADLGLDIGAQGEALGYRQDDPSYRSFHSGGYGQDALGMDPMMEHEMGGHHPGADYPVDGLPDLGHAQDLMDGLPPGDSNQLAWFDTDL
UniProt P15116, residues 160-906: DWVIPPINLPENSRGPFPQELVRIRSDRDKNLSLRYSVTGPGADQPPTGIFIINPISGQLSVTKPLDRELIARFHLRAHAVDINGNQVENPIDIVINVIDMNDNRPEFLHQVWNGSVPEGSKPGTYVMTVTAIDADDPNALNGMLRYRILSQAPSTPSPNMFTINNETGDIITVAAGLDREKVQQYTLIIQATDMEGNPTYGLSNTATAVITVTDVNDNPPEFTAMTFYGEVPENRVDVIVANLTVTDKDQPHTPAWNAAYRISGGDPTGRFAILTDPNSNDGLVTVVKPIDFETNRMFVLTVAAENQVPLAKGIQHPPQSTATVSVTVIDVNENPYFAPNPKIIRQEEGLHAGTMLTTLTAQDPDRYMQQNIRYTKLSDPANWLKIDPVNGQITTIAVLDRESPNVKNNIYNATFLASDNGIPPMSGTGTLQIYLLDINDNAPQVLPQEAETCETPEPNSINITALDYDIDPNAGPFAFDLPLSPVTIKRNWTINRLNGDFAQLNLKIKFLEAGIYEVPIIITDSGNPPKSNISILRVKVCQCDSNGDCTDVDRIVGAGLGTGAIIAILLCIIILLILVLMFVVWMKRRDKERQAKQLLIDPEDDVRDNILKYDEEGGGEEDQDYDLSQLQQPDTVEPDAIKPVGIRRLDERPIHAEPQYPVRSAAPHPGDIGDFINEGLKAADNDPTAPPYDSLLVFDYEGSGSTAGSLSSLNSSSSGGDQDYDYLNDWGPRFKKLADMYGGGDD

Biological target: β catenin (mouse (endogenous in mouse brain)) (UniProt Q02248)
Assay: co-IP; 200 µg brain homogenate (0.025 M Tris, 0.15 M NaCl, 0.001 M EDTA, 1% NP-40, 5% glycerol, pH 7.4) incubated overnight at 4°C with anti-β catenin antibody, protein A beads, five washes; immunoblot for N-cadherin; normothermic or heat acclimated mice, sham or 6, 12 or 24 h after closed head injury

Substance: N-cadherin (from UniProt P15116 160-906)
- binding: binds
